PubChem BioAssay AID504764 – Drosophila RNAi Screening Center | 2011
The screen tested about 22,000 reagents; shown is an unselected part of those that have a named target and a result. Over the whole deposit, 403 (1.9%) were called active. 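Unnormalised raw counts per well; ratio z-scores behind the hit calls and whether each hit raises or lowers signal are not deposited.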 Reagents against one gene are numbered here. No sequences are given here. Not stated in the record: the amount of reagent.

- Assay: 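Knock-downs that raise or lower a Notch target reporter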 (primary screen)
- Cell system: Drosophila Kc167 cells
- Reagent: long dsRNA against Drosophila genes
- Time to read-out: about 5 days (4 days dsRNA, then 24 h after transfection)
- Conditions: transfection of constitutively active membrane-tethered Notch lacking the extracellular domain, read 24 h later
- Measurement: 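Firefly luciferase from an E(spl)m3 reporter with active Notch, plus control-promoter and uninduced reporter wells for normalisation; unnormalised counts, duplicate wells a and b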
- Direction: induced reporter light, run 1, well a and induced reporter light, run 1, well b: higher = more light from the Notch target reporter with active Notch; control promoter light, run 1, well a and control promoter light, run 1, well b: higher = more light from the viral control promoter (cell number, transfection, viability); uninduced reporter light, run 1, well a: higher = more light from the Notch target reporter without active Notch
- Hit rule: 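Hit if the duplicate-averaged log2 ratio of induced to control-promoter light gives a plate-wise z beyond ±2, or induced to uninduced beyond ±1.8; weak-control or discordant-duplicate wells dropped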
- Calls: active = modifier hit (raised or lowered Notch signal); inactive = not a hit

| gene knocked down | reagent | induced reporter light, run 1, well a | induced reporter light, run 1, well b | control promoter light, run 1, well a | control promoter light, run 1, well b | uninduced reporter light, run 1, well a | call |
| --- | --- | --- | --- | --- | --- | --- | --- |
| Tm2 | 1 | 2.29e5 | 2.03e5 | 2.05e5 | 1.83e5 | 15640 | inactive |
| Prim2 | 1 | 89390 | 70225 | 42890 | 51800 | 7690 | inactive |
| CG18789 | 1 | 1.33e5 | 1.41e5 | 1.39e5 | 1.73e5 | 14415 | inactive |
| Lint-1 | 1 | 1.11e5 | 98960 | 90240 | 1.03e5 | 10440 | inactive |
| CG33125 | 1 | 92835 | 79900 | 1.26e5 | 1.36e5 | 5195 | inactive |
| CG10019 | 1 | 22265 | 22478 | 14765 | 12390 | 2850 | inactive |
| scro | 1 | 67360 | 88475 | 1.20e5 | 1.11e5 | 7120 | inactive |
| scro | 2 | 1.51e5 | 1.46e5 | 3.40e5 | 2.80e5 | 9520 | inactive |
| Nepl18 | 1 | 1.60e5 | 1.54e5 | 2.18e5 | 2.05e5 | 15950 | inactive |
| timeout | 1 | 1.28e5 | 1.67e5 | 1.79e5 | 1.49e5 | 11925 | inactive |
| timeout | 2 | 2.45e5 | 2.51e5 | 2.21e5 | 2.23e5 | 17740 | inactive |
| timeout | 3 | 2.23e5 | 2.42e5 | 1.92e5 | 1.90e5 | 16525 | inactive |
| timeout | 4 | 2.76e5 | 3.21e5 | 2.43e5 | 2.38e5 | 20405 | inactive |
| timeout | 5 | 2.75e5 | 2.74e5 | 2.47e5 | 2.29e5 | 22490 | inactive |
| C901 | 1 | 1.33e5 | 1.38e5 | 1.81e5 | 2.02e5 | 9665 | inactive |
| CG12998 | 1 | 1.14e5 | 94785 | 1.07e5 | 1.05e5 | 14160 | inactive |
| upd1 | 1 | 40835 | 26540 | 27290 | 20860 | 2742 | inactive |
| CG8478 | 1 | 1.39e5 | 1.11e5 | 1.56e5 | 1.09e5 | 10335 | inactive |
| CG14130 | 1 | 1.65e5 | 1.45e5 | 1.96e5 | 1.83e5 | 6150 | inactive |
| CG14456 | 1 | 1.19e5 | 1.09e5 | 1.14e5 | 1.24e5 | 7415 | inactive |
| CG15200 | 1 | 1.06e5 | 1.22e5 | 2.10e5 | 1.86e5 | 9850 | inactive |
| ste24a | 1 | 1.19e5 | 1.26e5 | 2.39e5 | 2.35e5 | 9720 | inactive |
| RYa-R | 1 | 1.85e5 | 1.88e5 | 2.99e5 | 2.74e5 | 16220 | inactive |
| CG13717 (retired record) | 1 | 2.59e5 | 1.95e5 | 2.91e5 | 2.23e5 | 14480 | inactive |
| CG13717 (retired record) | 2 | 1.96e5 | 1.73e5 | 1.73e5 | 1.82e5 | 9680 | inactive |
| CG13717 (retired record) | 3 | 21895 | 15560 | 18110 | 21632 | 3205 | inactive |
| CG13717 (retired record) | 4 | – | – | – | – | – | inactive |
| shf | 1 | 1.39e5 | 1.45e5 | 2.49e5 | 1.98e5 | 11210 | inactive |
| Qtzl | 1 | 1.31e5 | 1.26e5 | 1.77e5 | 1.35e5 | 8415 | inactive |
| cad | 1 | 33360 | 33740 | 6875 | 7370 | 6688 | inactive |
| CG14115 | 1 | 1.25e5 | 1.17e5 | 1.73e5 | 1.37e5 | 6815 | inactive |
| CG9525 | 1 | 1.16e5 | 1.37e5 | 64070 | 80675 | 15992 | inactive |
| CG9164 | 1 | 54490 | 51445 | 30450 | 28100 | 7840 | inactive |
| CG9164 | 2 | 2.24e5 | 1.96e5 | 2.57e5 | 2.51e5 | 14180 | inactive |
| Cyp9b2 | 1 | 1.59e5 | 1.50e5 | 2.01e5 | 1.76e5 | 14135 | inactive |
| tej | 1 | 65990 | 86685 | 90080 | 1.23e5 | 9865 | inactive |
| CG1690 | 1 | 1.74e5 | 1.46e5 | 2.07e5 | 2.25e5 | 16435 | inactive |
| CG12009 | 1 | 1.10e5 | 96205 | 59640 | 31585 | 12805 | inactive |
| CG31199 | 1 | 1.69e5 | 1.86e5 | 1.95e5 | 2.10e5 | 14655 | inactive |
| kek6 | 1 | 85515 | 99400 | 1.71e5 | 1.77e5 | 8230 | inactive |
| Su(var)3-3 | 1 | 98535 | 91195 | 51075 | 51335 | 8450 | inactive |
| Muc30E | 1 | 1.22e5 | 1.06e5 | 1.31e5 | 1.35e5 | 9770 | inactive |
| CG6763 | 1 | 1.80e5 | 1.81e5 | 2.40e5 | 2.28e5 | 14970 | inactive |
| Blos2 | 1 | 2.13e5 | 1.46e5 | 1.87e5 | 1.85e5 | 8065 | inactive |
| Art3 | 1 | 1.41e5 | 1.64e5 | 91270 | 94910 | 10742 | inactive |
| CG12828 | 1 | 2.19e5 | 2.14e5 | 2.50e5 | 2.47e5 | 18250 | inactive |
| MED28 | 1 | 1.18e5 | 1.32e5 | 1.23e5 | 1.40e5 | 11700 | inactive |
| Spindly | 1 | 61345 | 63215 | 78525 | 69975 | 5445 | inactive |
| Nek2 | 1 | 2.03e5 | 1.68e5 | 2.11e5 | 1.77e5 | 15120 | inactive |
| CycB3 | 1 | 1.42e5 | 1.27e5 | 1.59e5 | 1.39e5 | 9810 | inactive |
| CG16787 | 1 | 1.55e5 | 1.64e5 | 1.50e5 | 1.45e5 | 10192 | inactive |
| DppIII | 1 | 1.33e5 | 1.39e5 | 99690 | 80440 | 6430 | inactive |
| CG43795 | 1 | 2.13e5 | 1.69e5 | 1.86e5 | 2.02e5 | 13605 | inactive |
| CG43795 | 2 | 2.21e5 | 2.51e5 | 2.11e5 | 2.32e5 | 16905 | inactive |
| CG43795 | 3 | 1.49e5 | 1.41e5 | 1.63e5 | 1.47e5 | 9375 | inactive |
| CG43795 | 4 | 1.24e5 | 99480 | 1.39e5 | 1.32e5 | 9825 | inactive |
| CG43795 | 5 | 1.37e5 | 1.35e5 | 1.28e5 | 1.35e5 | 9180 | inactive |
| CG43795 | 6 | – | – | – | – | – | inactive |
| ETH | 1 | 1.92e5 | 1.49e5 | 2.07e5 | 1.70e5 | 11710 | inactive |
| CG15117 | 1 | 51830 | 54385 | 1.01e5 | 1.03e5 | 6720 | inactive |
| sphe | 1 | 1.45e5 | 1.53e5 | 1.27e5 | 75295 | 9055 | inactive |
| Tsp39D | 1 | 52605 | 35210 | 42695 | 56440 | 2115 | inactive |
| Lfg | 1 | 82855 | 1.06e5 | 1.18e5 | 1.39e5 | 8855 | inactive |
| pyd3 | 1 | 1.60e5 | 1.53e5 | 92565 | 91720 | 12040 | inactive |
